No constants are given. Whether binding was seen depends on the method and setting. Some binding calls cover weakened binding; strength is not graded here. Sequences can lack the tags named with a protein.
Target: T1, human progastrin (full length, recombinant, produced in E. coli, tag removed) (human)
T1 sequence: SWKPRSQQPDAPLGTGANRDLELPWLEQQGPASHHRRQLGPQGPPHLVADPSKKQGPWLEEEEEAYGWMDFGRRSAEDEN
Assay: epitope mapping (details not given)

binding: binds
B1: mAb19 (hybridoma 1B3B4F11) (antibody, V domains shown)
VH: DVQLQESGPGLVKPSQSLSLTCTVTGYSITSDYAWNWIRQFPGNKLEWMGYISFSGYTSYNPSLKSRISVTRDTSRNQFFLQLTSVTTEDTATYYCAREVNYGDSYHFDYWGQGTIVTVSS
VL: QLALTQSSSASFSLGASAKLTCTLSSQHRTYTIEWYQQQSLKPPKYVMEVKKDGSHSTGHGIPDRFSGSSSGADRYLSISNIQPEDEAIYICGVGDAIKGQSVFVFGGGTKVTVL

Reference: patent publication US20200200751A1
